Primary screen of a compound library

Mtb cholesterol medium: 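Phenotypic screen: M. tuberculosis growth, cholesterol and DPPC medium, 4 days; the read-out is not stated. Concentration: 50 µM. Higher reads as more growth inhibition (inferred: compounds with an IC50 in retests scored well above the rest). Of about 69,000 compounds tested this way, about 370 (0.54%) reached 50% or more in at least one test.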
Mtb glucose medium: 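Whole-cell growth test on Mycobacterium tuberculosis, read after 3 days in glucose-containing 7H9 medium; the read-out is not stated. Tested at 50 µM. Direction is inferred from retests: higher values go with more growth inhibition. About 69,000 compounds were tested under these conditions; 1.1% (about 760) showed 50% or more at least once.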

Values are the deposited “Percent Effect”, in %. The record does not define 0% and 100%; most values in the screen are far below 50% and negative numbers occur (in some assays of this library far below -100). The compounds are a random part of those screened. Two or more numbers in one place are separate tests of the same structure; such repeats can differ widely.

| # | SMILES | Mtb cholesterol medium | Mtb glucose medium |
|---|---|---|---|
| 1 | `CCn1nc(CC(C)C)cc1C(=O)N1CCCOC(CN2CCCC2)C1` (centres unmarked) | 9.69% | 10.99% |
| 2 | `COc1ccc(OC)c(Sc2ncccc2C(=O)NCC2CC2)c1` | -28.53% | -43.62% |
| 3 | `CN(CCc1ccccc1)Cc1nc(-c2cnccn2)no1` | -3.45% | 22.09% |
| 4 | `CC(=O)NCCC1CCCCN1S(=O)(=O)c1cccc(C#N)c1` (centres unmarked) | -1.739% | 8.735% |
| 5 | `OC(CN1CCOCC1)c1cc(Cl)ccc1Cl` (centres unmarked) | 11.78% | -13.6% |
| 6 | `CCCn1nc2c(cc1=O)CN(Cc1nc(-c3ccoc3)no1)CC2` | -3.464% | -9.566% |
| 7 | `O=C(c1ccc[nH]1)N1Cc2nccn2CC(Cn2ncccc2=O)C1` (centres unmarked) | -14.18% | -14.28% |
| 8 | `[H][C@]12CC[C@]([H])(CN(S(=O)(=O)N(C)C)C1)N(C(=O)c1cnc(SC)nc1)C2` | 7.048% | -0.8307% |
| 9 | `COCCC(=O)N1CCC(c2cc(O)n(C)n2)C1` (centres unmarked) | -4.994% | -17.99% |
| 10 | `COCC(=O)N1CCN(C)C(=O)C(Cc2ccc(-c3cccs3)cc2)C1` (centres unmarked) | 2.954% | 2.538% |
| 11 | `CCC(C(=O)NCc1ccncc1)N(c1ccc(OC)cc1)S(C)(=O)=O` (centres unmarked) | 6.175% | 27.28% |
| 12 | `CC(=O)NCc1ccc(C(=O)N2CCCC2c2cnn(C)c2)cc1` (centres unmarked) | 1.749% | 5.617% |
| 13 | `CC(NC(=O)NCc1ccccc1)(C(=O)O)c1ccco1` (centres unmarked) | -10.38% | 30.95% |
| 14 | `Nc1cc2c(nn1)CCN(C(=O)c1cccc3c1OCCO3)C2` | -14.52% | -15.29% |
| 15 | `CCc1nnsc1C(=O)NCCC1CN(C(C)C)CCO1` (centres unmarked) | -11.86% | -8.323% & -2.882% |
| 16 | `CN1CCCC(c2cccc(-c3cccc(Cl)c3)n2)C1` (centres unmarked) | 34.28% | 48.7% |
| 17 | `Cc1noc(C)c1S(=O)(=O)N1CCc2nc(C3CCNCC3)ncc2C1.Cl` | -4.436% | -2.796% |
| 18 | `Nc1nnc(SCc2cc(=O)n3c4c(sc3n2)CCCC4)s1` | 4.548% | 4.157% |
| 19 | `CC(OCC1CC1)C(=O)Nc1ncn(CC(=O)N2CCCCCC2)n1` (centres unmarked) | -14.61% | 3.99% |
| 20 | `CCc1nccn1C1CCCN(C(=O)c2cncn2-c2ccccc2)C1` (centres unmarked) | 3.675% | -4.179% |
| 21 | `CC(Sc1nnc(C2CC2)n1CC(N)=O)c1ccc(Cl)cc1` (centres unmarked) | -35.57% & 2.62% | 19.22% |
| 22 | `CN(C)c1nc2c(c(N(C)Cc3n[nH]c4c3CCCCC4)n1)CCNC2` | 31.52% | 26.23% |
| 23 | `CN1CCN(Cc2cccnc2)C(=O)C12CCN(CC1CCOC1)CC2.O=C(O)C(F)(F)F.O=C(O)C(F)(F)F.O=C(O)C(F)(F)F` (centres unmarked) | 1.064% | -5.245% |
| 24 | `CC(C)NC(=O)c1cnc(Sc2nccn2C)c(Cl)c1` | -27.61% | -50.69% |
| 25 | `CCCn1nccc1-c1nccnc1CC1CCN(C(C)=O)CC1` | -14.12% | -7.708% |
| 26 | `CC(C)n1[nH]c(=O)c2c1NC(=O)CC2C1CCCCC1` (centres unmarked) | 7.025% | 3.042% |
| 27 | `CS(=O)(=O)Cc1ccc(OCc2ccc(F)cc2)cc1` | 20.3% | 19.85% |
| 28 | `CCCN1CCC(Cc2noc(-c3cccnc3OC)n2)CC1` | 4.607% & 2.78% | 0.4975% |
| 29 | `Cc1cn(CC(=O)NC2CCN(C(C)C)CC2)c2ccccc12` | -21.05% | -25.09% |
| 30 | `Cn1cnnc1CCNC(=O)c1cnn(Cc2ccccc2)c1` | 10.26% | 3.421% & 1.994% |
| 31 | `O=C(O)C(F)(F)F.O=C(O)C(F)(F)F.O=C(O)C(F)(F)F.[H][C@@]12CN(Cc3ccco3)C[C@]1([H])OCCN2CCN1CCCC1` | -0.8675% | -7.059% & 5.382% |
| 32 | `CC1CCN(C(=O)CN2CCC(c3n[nH]c(C4CC4)n3)CC2)CC1` | -8.535% | -19.73% |
| 33 | `COC(=O)c1sccc1S(=O)(=O)N1CCC(Oc2cccc(C)n2)CC1` | 8.51% | 15.56% |
| 34 | `CN(C)CC(C)(C)Cn1cnc(-c2ccccc2)c1-c1ncc[nH]1` | -29.26% | -9.114% & -7.055% |
| 35 | `[H][C@]12CC[C@](O)(CC1)C(COC)N2C(=O)c1ccc2c(c1)OCCCO2` (some centres unmarked) | -0.08294% | 3.284% |
| 36 | `Cc1cc(N)cc(C2CN(Cc3cc[nH]n3)CCO2)n1` (centres unmarked) | -9.457% | 23.72% |
| 37 | `CCc1nc(C)ncc1C(=O)N1CCCC(n2nc(C)nc2C)C1` (centres unmarked) | 9.196% | 0.7912% |
| 38 | `Cc1ccc(N2CCCN(C(=O)c3n[nH]c4c3CCC4)CC2)nn1` | 3.683% | 7.387% |
| 39 | `O=C(CSc1ccc(F)cc1)NS(=O)(=O)c1ccc2c(c1)OCCO2` | -2.293% | -16.44% |
| 40 | `CC(Cn1cccn1)NC(=O)NCCCN1CCc2ccccc2C1` (centres unmarked) | -17.24% | -20.58% & -3.83% |

For reference, 5 entries once more:

- CN1CCN(Cc2cccnc2)C(=O)C12CCN(CC1CCOC1)CC2.O=C(O)C(F)(F)F.O=C(O)C(F)(F)F.O=C(O)C(F)(F)F (centres unmarked) : Mtb cholesterol medium: 1.064%; Mtb glucose medium: -5.245%
- COCC(=O)N1CCN(C)C(=O)C(Cc2ccc(-c3cccs3)cc2)C1 (centres unmarked) : Mtb cholesterol medium: 2.954%; Mtb glucose medium: 2.538%
- CN(CCc1ccccc1)Cc1nc(-c2cnccn2)no1 : Mtb cholesterol medium: -3.45%; Mtb glucose medium: 22.09%
- COc1ccc(OC)c(Sc2ncccc2C(=O)NCC2CC2)c1 : Mtb cholesterol medium: -28.53%; Mtb glucose medium: -43.62%
- CC(OCC1CC1)C(=O)Nc1ncn(CC(=O)N2CCCCCC2)n1 (centres unmarked) : Mtb cholesterol medium: -14.61%; Mtb glucose medium: 3.99%

From ChEMBL document CHEMBL3988442, “University of Dundee, Small-Polar-MMV Screening Library” (2021).